From PubChem BioAssay AID1671190 (National Center for Advancing Translational Sciences (NCATS), 2021)
The list shows a part of the results, in another mix than the full data. Records with an inconclusive call do not appear. Calls of active or inactive are those of the source. Calls follow the shape of the dose curve; as a rule, active = well fitted inhibition curve with a large enough effect; inconclusive = small, poorly fitted or top-dose-only effect, or another doubt; inactive = no such curve, though single readings can be large or run the other way.

Protein sequences, listed by entry. Tags and fused reporters are not part of them. Lines headed by an entry give the natural chain unless they say otherwise; changes in a name come on top.
UniProt P18054: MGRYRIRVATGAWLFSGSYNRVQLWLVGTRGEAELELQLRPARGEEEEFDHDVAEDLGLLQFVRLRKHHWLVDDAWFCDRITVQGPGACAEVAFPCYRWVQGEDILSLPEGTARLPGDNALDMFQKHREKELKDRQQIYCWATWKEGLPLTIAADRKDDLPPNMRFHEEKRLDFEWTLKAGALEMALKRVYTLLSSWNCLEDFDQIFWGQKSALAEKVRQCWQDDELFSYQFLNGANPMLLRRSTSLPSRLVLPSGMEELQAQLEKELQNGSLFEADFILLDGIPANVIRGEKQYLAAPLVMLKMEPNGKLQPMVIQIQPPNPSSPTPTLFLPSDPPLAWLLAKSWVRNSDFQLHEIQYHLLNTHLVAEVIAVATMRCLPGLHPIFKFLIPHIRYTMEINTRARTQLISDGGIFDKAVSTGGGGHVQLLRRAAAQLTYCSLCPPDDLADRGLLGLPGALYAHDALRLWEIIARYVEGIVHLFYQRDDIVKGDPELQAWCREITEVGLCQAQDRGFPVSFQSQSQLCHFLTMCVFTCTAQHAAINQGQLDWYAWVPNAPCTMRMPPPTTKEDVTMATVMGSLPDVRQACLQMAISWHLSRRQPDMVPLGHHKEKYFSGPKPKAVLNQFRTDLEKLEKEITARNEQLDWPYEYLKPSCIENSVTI

What follows are molecules tested against Polyunsaturated fatty acid lipoxygenase ALOX12 (Homo sapiens) (UniProt P18054) (assay: Primary qHTS assay for inhibitors of human arachidonate 12S-lipoxygenase (ALOX12): Round 2). Details: purified 12hLO, xylenol orange hydroperoxide absorbance.
Description: Assay Provider: Theodore R. Holman Ph.D. University of California, Santa Cruz, California Human lipoxygenase 12hLO is a member of the closely related lipoxygenase family of enzymes which catalyze the site-specific oxidation of arachidonic acid to various hormone precursor molecules and as such is a candidate for drug development in a variety of disease areas, such as cancer and inflammation. Inhibition of 12hLO activity was screened by utilizing arachidonic acid as a substrate. The extent of hydroperoxide product formation was measured by a secondary chromogenic reaction in which xylenol orange (XO, Sigma-Aldrich, cat. number 39,818-7) reacts with the ferric ions produced from the reaction between the hydroperoxide and ferrous ions. The Fe (III)-XO complex is characterized with red-shifted absorbance at 560 nm. A purified preparation of human 12hLO was supplied by Dr. Holman laboratory, University of California, Santa Cruz.
PROTOCOL TABLE SEQUENCE No. (e.g., 1, 2, 3, etc.); […] (e.g., Cells, Incubation, Reagent, etc.); VALUE; DESCRIPTION 1; Enzyme; 3 uL; 150 nM 12hLO enzyme solution dispensed in 1536-well Greiner black, clear bottom plates. 2; Compound; 23 nL; compounds and controls were added. 3; Incubate; 15 min; room temperature. 4; Substrate; 1 uL; 40 uM arachidonic acid (final concentration). 5; Incubate; 30 min; room temperature. 6; Reagent; 4 uL; Fe-XO solution was added to each well. 7; Incubation; 30 min; room temperature 8; Detector; absorbance; Read 1 at 405 nm absorbance using ViewLux (Perkin-Elmer) CCD imager. 9; Detector; absorbance; Read 2 at 573 nm absorbance using ViewLux (Perkin-Elmer) CCD imager. NOTES (numbers refer to sequence above) 1; 150 nM 12hLO (final concentration) in buffer solution (25 mM Hepes, 0.01% Triton X-100, pH 7.0) was dispensed in columns 1, 2, 5-48. Column 1 is neutral (100% activity). Buffer only was dispensed in columns 3 and 4 as no enzyme negative controls. The plates were covered with metal lids with gas-exchange holes. 2; Compounds were pin transferred via a Kalypsys Pin Tool (Wako USA) in column 5-48. Control compound was transferred in column 2, titration of nordihydroguaiaretic acid (NDGA, Sigma-Aldrich, N5023) with top concentration of 20 mM in DMSO then 1:3 dilution in duplicate. Dilution factor of 23 nL into 4 uL final assay volume. 3; Covered assay plates were incubated for 15 min at room temperature. 4; Substrate was added to start the reaction; 40 uM arachidonic acid (Sigma-Aldrich, St. Louis, MO) was dispensed throughout the plate. […] 8, 9; Two absorbance readouts were obtained at 405 nm and at 573 nm using a ViewLux high-throughput CCD plate imager (Perkin-Elmer). The 573 to 405 (Read 2 / Read 1) absorbance ratio was used to compute reaction progress.
Potency is read from the fitted curve at half-maximal effect.

| SMILES | Potency |
| --- | --- |
| C/C(CC1CC2=C(CC1(C)C)C(C)(C)CCC2)=N\NC(N)=S (centres undefined) | active: 15.8 µM |
| C=CCn1c(=S)[nH]c2scc(-c3ccco3)c2c1=O | active: 39.8 µM |
| CCc1ccc(-n2cccc2/C=C2/C(=N)N3C(=NC2=O)SN=C3S(C)(=O)=O)cc1 | active: 50.1 µM |
| O=C1CSc2cc(Cl)ccc2N1 | active: 35.5 µM |
